{
  "source": "patent US12570684B2",
  "about": "(UNIVERSITY OF TENNESSEE RESEARCH FOUNDATION, priority 2020, dated 2026)",
  "system": "cell lines in Table 2",
  "assay": "MTT assays, summary over the cell lines in Table 2",
  "type": "cell-based",
  "conditions": "KB, SiHa, HCT-116, DLP-1, Capan-2, PANC-1, AsPC-1, PD002, read-out: IC50 range, growth inhibition of solid cancer cell lines",
  "procedure": "Cell lines. The human primary PDAC cell lines PANC-1 (ATCC CRL 1469); Capan-2 (ATCC HTB-80) and metastatic PDAC cell lines Capan-1 (ATCC HTB-79), AsPC-1 (ATCC CRL-1682), L1210 (ATCC CCL-219), KB (ATCC CCL-17), HeLa, SiHa (ATCC HTB-35), HCT-116 (ATCC CCL-247), DLD-1 (ATCC CCL221), hTERT-HPNE (ATCC CRL-4023), Vero (ATCC CCL-81) were purchased from the ATCC. The cell lines were cultured and maintained in the media as recommended by the supplier. The cell lines were regularly tested for mycoplasma contamination and authenticated. In addition to ATCC cell lines, Dr. Glazer's lab generated patient-derived PDAC cell line, PD002. PD002 Cells were maintained and cultured in DMEM medium supplemented with 20% FBS and 100 IU/mL penicillin and incubated at 37° C. with 5% CO2.\nMTT cytotoxicity assay. To study the effect of treatment with DPAGT1 inhibitors on the growth and proliferation of cells, a fixed number of cells (5×10^4 cells/well, 196 μL) were plated in a 96 well plate. Into each well 5 μL of drug concentration was added. After 72 h of incubation with drugs at 37° C., 5% CO2, 10 μL of MTT solution (5 mg/mL in PBS) was added and incubated another 3 h at 37° C., 5% CO2. […] Viability was assessed on the basis of cellular conversion of MTT into a purple formazan product. The absorbance of the colored formazan product was measured at 570 nm by BioTek Synergy HT Spectrophotometer.",
  "note": "Some of these results come from one statement about several compounds together.",
  "data": [
    {"substance": "(2S,3S,4S)-2-((1R)-2-Amino-1-((2S,5R)-5-(2,4-dioxo-3,4-dihydropyrimidin-1(2H)-yl)-4-hydroxy-3-methoxytetrahydrofuran-2-yl)-2-oxoethoxy)-3,4-dihydroxy-N-(4-(4-(4-(trifluoromethoxy)-phenyl)piperidin-1-yl)benzyl)-3,4-dihydro-2H-pyran-6-carboxamide [CPPB]", "values": [
      {"measurement": "IC50", "result": "15 to 40", "unit": "µM"}
    ]}
  ]
}
